Measurements taken from patent US5998580A, “Photosensitive caged macromolecules” (priority 1995, dated 1999).
Part of at least one peptide drawing is inferred or uncertain, most often the ends. *1 amine or outer side, *2 acyl side, *3 side chain or, on linkers, in order; H or OH if unused. Where a SMILES comes first, the peptide text is derived from it. [ ]: non-standard residue; d: D form. X1 = O=C(C(N[*:1])c1ccccc1[N+](=O)[O-])[*:2]

System: Smooth muscle myosin light chain kinase (MLCK)
Assay: inhibition of smooth muscle myosin light chain kinase (MLCK) activity, 32P incorporation into light chain
Type: biochemical
Description: The standard photolysis protocol involves exposure of caged peptide (0.1 to 1 ml; 0.1 mM to 1 mM in 50 mM Tris pH 7.5) in a quartz cuvette (1 cm path length) to the beam of a continuous 75 watt Xenon arc lamp that is filtered through a 300-350 nm band pass filter (UG-11 filter). This standard in vitro photolysis protocol was carried out for 30 minutes at room temperature.
Smooth muscle myosin light chain kinase (MLCK) (0.5 μg/ml) was incubated with various concentrations of synthetic caged peptide (e.g., 1-CAG-RS-20 and 9-NPG-RS-20) in the presence of 100 nM calmodulin, 0.1 mM CaCl2, 100 mM KCL, 0.2 mg/ml myosin regulatory light chain, 1 mM MgCl2, and 30 mM Tris-HCL (pH 7.5) at 25° C. for 5 minutes. 1-CAG-RS-20 and 9-NPG-RS-20 were photolyzed using the standard photolysis protocol (see above) and the uncaged peptide was purified away from by-products and caged peptides prior to the enzymatic assay using reverse phase HPLC. The phosphorylation reaction was started by adding 50 μM ^32 P-ATP. The incorporation of ^32 P into the light chain was measured by scintillation counter and the inhibitory effect of the peptide on myosin light chain kinase was determined.

CC[C@H](C)[C@H](NC(=O)[C@H](C)NC(=O)[C@H](CCCNC(=N)N)NC(=O)[C@@H](NC(=O)[C@H](C)NC(=O)[C@H](Cc1c[nH]cn1)NC(=O)C(NC(=O)[C@@H](NC(=O)[C@H](CCCCN)NC(=O)[C@H](CCC(N)=O)NC(=O)[C@H](Cc1c[nH]c2ccccc12)NC(=O)[C@H](CCCCN)NC(=O)[C@H](CCCNC(=N)N)NC(=O)[C@H](CCCNC(=N)N)NC(=O)[C@H](C)N)[C@@H](C)O)c1ccccc1[N+](=O)[O-])C(C)C)C(=O)NCC(=O)N[C@@H](CCCNC(=N)N)C(=O)N[C@@H](CC(C)C)C(=O)N[C@@H](CO)C(=O)N[C@@H](CO)C(=O)O (some centres unmarked) [9-NPG-RS-20] (H-ARRKWQKT[X1]HAVRAIGRLSS-OH)
biological activity (MLCK inhibition) upon photolysis (after photolysis (cleavage of the peptide backbone)): rendered biologically inactive
MLCK activity remaining (inhibited to) (before photolysis, over a range of concentrations, 100 nM calmodulin): less than 10%
